Data reported in US20110288151A1, “METHODS OF CHARACTERIZING BREAST CANCER AND IDENTIFYING TREATMENTS FOR SAME” (The Trustees of the University of Pennsylvania, priority 2008, published 2011).
At least one compound was matched to its structure with a doubt left.

Tests used:
Rac1 = test: Rac1-GTP GST pull down, HRG-treated MCF-10A cells; assay type: cell-based, human; conditions: serum-starved MCF-10A cells, HRG 100 ng/ml 5 min, pretreatment (1 h; PTX 24 h)
Method: The image of the immunoblot depicts Rac1-GTP levels as determined by a GST pull down assay of serum-starved MCF-10A cells treated with HRG (100 ng/ml, 5 min), with or without pretreatment with PI3K inhibitor wortmannin, EGFR inhibitor AG1478, PI3Kγ inhibitor 5-quinoxalin-6-ylmethylene-thiazolidine-2,4-dione (1 mM, 1 h), or PTX (24 h) (FIG. 17).

P-Rex1 = P-Rex1 sub-cellular localization in MCF-7 cells (fluorescence microscopy); assay type: cell-based, human; conditions: HRG 10 ng/mL 10 min, Wortmannin 1 μM, antibodies 10 μg/mL 1 hr
Method: Cells were then fixed and stained with the antibody of Example 1 to detect P-Rex1 and subject to staining with a secondary Cy2-conjugated antibody, and visualized with fluorescence microscopy. […] (FIG. 12A and FIG. 12B).
To test whether this effect of HRG on P-Rex1 localization was dependent on PI3K, MCF-7 breast cancer cells were serum starved for 48 hours, treated for 10 minutes with HRG (10 ng/mL), with or without Wortmannin (1 μM), an anti-ErbB3 blocking antibody (10 μg/mL, 1 hr) or control IgG and stained and visualized (FIG. 12B).

## COC[C@H]1OC(=O)c2coc3c2[C@@]1(C)C1=C(C3=O)[C@@H]2CCC(=O)[C@@]2(C)C[C@H]1OC(C)=O [wortmannin]
Rac1
  sensitivity of Rac1 activation by HRG: sensitive
P-Rex1
  effect on HRG-induced P-Rex1 localization: dependent on PI3K signaling
